Values from PubChem BioAssay AID652243 (Drosophila RNAi Screening Center, 2013).
The deposit covers about 24,000 reagents; below is a random part of those that have a named target and a result. Of all reagents, 246 (1%) got an active call. 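Plates not normalised; calls are printed but the firefly/Renilla ratio behind them is not deposited; fold cut for lowering reported inconsistently.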 The raw values are shown without normalisation. A number with no mark means an inactive call. The record does not give: the amount of reagent.

Purpose: 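Fly regulators of androgen-dependent reporter output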 (primary screen)
System: Drosophila S2R+ cells
Reagents: long dsRNA against Drosophila genes
Timing: 72 h (48 h, then 24 h hormone)
Treatment: synthetic androgen R1881 at 10 nM for 24 h
Measurement: 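Firefly light from an androgen-responsive reporter and Renilla control light per well, raw and unnormalised, for each of two replicates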
Scale: firefly reporter light: higher = more light from androgen-responsive reporter; Renilla control light: higher = more constitutive control signal (cell number, transfection)
Rule for the call: 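Hit when the log firefly-to-Renilla ratio dropped or increased by a fixed fold versus the mean of GFP or LacZ controls across duplicate plates; lowering cut given as 1.5 and as 3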
Meaning of the calls: active = hit: reporter lowered or raised; inactive = no hit

CG10348 [DRSC23233]
- firefly reporter light, replicate 1: 6.55e5
- firefly reporter light, replicate 2: 7.55e5
- Renilla control light, replicate 1: 1.54e6
- Renilla control light, replicate 2: 2.23e6

CG10348 [DRSC30046]
- firefly reporter light, replicate 1: 9.50e5
- firefly reporter light, replicate 2: 6.79e5
- Renilla control light, replicate 1: 1.45e6
- Renilla control light, replicate 2: 1.62e6

CG4238 [DRSC00644]
- firefly reporter light, replicate 1: 93132
- firefly reporter light, replicate 2: 1.15e5
- Renilla control light, replicate 1: 7.98e5
- Renilla control light, replicate 2: 9.12e5

CG8541 [DRSC10989]
- firefly reporter light, replicate 1: 1.25e5
- firefly reporter light, replicate 2: 1.58e5
- Renilla control light, replicate 1: 1.79e6
- Renilla control light, replicate 2: 1.68e6

CG8541 [DRSC25235]
- firefly reporter light, replicate 1: 6.63e5
- firefly reporter light, replicate 2: 8.15e5
- Renilla control light, replicate 1: 1.48e6
- Renilla control light, replicate 2: 1.36e6

CG3902 [DRSC10387]
- firefly reporter light, replicate 1: 1.84e5
- firefly reporter light, replicate 2: 1.36e5
- Renilla control light, replicate 1: 1.69e6
- Renilla control light, replicate 2: 1.79e6

CG3902 [DRSC24267]
- firefly reporter light, replicate 1: 7.76e5
- firefly reporter light, replicate 2: 6.79e5
- Renilla control light, replicate 1: 9.04e5
- Renilla control light, replicate 2: 1.14e6

gbb [DRSC04687]
- firefly reporter light, replicate 1: 2.78e5
- firefly reporter light, replicate 2: 3.53e5
- Renilla control light, replicate 1: 1.72e6
- Renilla control light, replicate 2: 1.47e6

gbb [DRSC25717]
- firefly reporter light, replicate 1: 7.58e5
- firefly reporter light, replicate 2: 5.19e5
- Renilla control light, replicate 1: 5.78e5
- Renilla control light, replicate 2: 4.66e5

CG11349 [DRSC08179]
- firefly reporter light, replicate 1: 99260
- firefly reporter light, replicate 2: 99921
- Renilla control light, replicate 1: 1.35e6
- Renilla control light, replicate 2: 1.26e6

CG11349 [DRSC27563]
- firefly reporter light, replicate 1: 2.54e5
- firefly reporter light, replicate 2: 3.40e5
- Renilla control light, replicate 1: 5.96e5
- Renilla control light, replicate 2: 7.32e5

MstProx [DRSC12458]
- firefly reporter light, replicate 1: 2.12e5
- firefly reporter light, replicate 2: 2.18e5
- Renilla control light, replicate 1: 4.45e5
- Renilla control light, replicate 2: 4.53e5

MstProx [DRSC12601]
- firefly reporter light, replicate 1: 39129
- firefly reporter light, replicate 2: 51931
- Renilla control light, replicate 1: 1.53e6
- Renilla control light, replicate 2: 1.00e6

tj [DRSC02011]
- firefly reporter light, replicate 1: 65536
- firefly reporter light, replicate 2: 83751
- Renilla control light, replicate 1: 9.78e5
- Renilla control light, replicate 2: 1.01e6

tj [DRSC28417]
- firefly reporter light, replicate 1: 2.10e5
- firefly reporter light, replicate 2: 4.57e5
- Renilla control light, replicate 1: 4.11e5
- Renilla control light, replicate 2: 8.29e5

CG7573 [DRSC10884]
- firefly reporter light, replicate 1: 2.67e5
- firefly reporter light, replicate 2: 2.38e5
- Renilla control light, replicate 1: 2.49e6
- Renilla control light, replicate 2: 1.34e6

CG17684 [DRSC37825]
- firefly reporter light, replicate 1: 9.39e5
- firefly reporter light, replicate 2: 6.85e5
- Renilla control light, replicate 1: 1.49e6
- Renilla control light, replicate 2: 1.37e6

CG43121 [DRSC10457]
- firefly reporter light, replicate 1: 1.15e6
- firefly reporter light, replicate 2: 1.34e6
- Renilla control light, replicate 1: 1.52e6
- Renilla control light, replicate 2: 2.56e6

The list goes on (3 carried over from the part before).
CG7573 [DRSC10884]
- firefly reporter light, replicate 1: 2.67e5
- firefly reporter light, replicate 2: 2.38e5
- Renilla control light, replicate 1: 2.49e6
- Renilla control light, replicate 2: 1.34e6

CG17684 [DRSC37825]
- firefly reporter light, replicate 1: 9.39e5
- firefly reporter light, replicate 2: 6.85e5
- Renilla control light, replicate 1: 1.49e6
- Renilla control light, replicate 2: 1.37e6

CG43121 [DRSC10457]
- firefly reporter light, replicate 1: 1.15e6
- firefly reporter light, replicate 2: 1.34e6
- Renilla control light, replicate 1: 1.52e6
- Renilla control light, replicate 2: 2.56e6

CG40930 (retired record) [DRSC38610]
- firefly reporter light, replicate 1: 5.89e5
- firefly reporter light, replicate 2: 5.69e5
- Renilla control light, replicate 1: 1.50e6
- Renilla control light, replicate 2: 1.73e6

CG30471 [DRSC07096]
- firefly reporter light, replicate 1: 1.01e6
- firefly reporter light, replicate 2: 8.71e5
- Renilla control light, replicate 1: 1.85e6
- Renilla control light, replicate 2: 2.22e6

Dnali1 [DRSC16158]
- firefly reporter light, replicate 1: 77249
- firefly reporter light, replicate 2: 94615
- Renilla control light, replicate 1: 5.30e5
- Renilla control light, replicate 2: 6.18e5

eIF3j [DRSC06107]
- firefly reporter light, replicate 1: 1.23e6
- firefly reporter light, replicate 2: 9.77e5
- Renilla control light, replicate 1: 1.72e6
- Renilla control light, replicate 2: 1.67e6

CG2909 [DRSC18241]
- firefly reporter light, replicate 1: 1.59e5
- firefly reporter light, replicate 2: 1.74e5
- Renilla control light, replicate 1: 2.37e6
- Renilla control light, replicate 2: 3.09e6

hlk [DRSC05021]
- firefly reporter light, replicate 1: 2.19e5
- firefly reporter light, replicate 2: 2.28e5
- Renilla control light, replicate 1: 1.32e6
- Renilla control light, replicate 2: 1.17e6

hlk [DRSC05022]
- firefly reporter light, replicate 1: 2.22e5
- firefly reporter light, replicate 2: 2.30e5
- Renilla control light, replicate 1: 1.85e6
- Renilla control light, replicate 2: 2.09e6

hlk [DRSC26150]
- firefly reporter light, replicate 1: 3.34e5
- firefly reporter light, replicate 2: 1.81e5
- Renilla control light, replicate 1: 7.66e5
- Renilla control light, replicate 2: 4.95e5

CG42720 (retired record) [DRSC22549]
- firefly reporter light, replicate 1: 5.41e5
- firefly reporter light, replicate 2: 5.72e5
- Renilla control light, replicate 1: 1.66e6
- Renilla control light, replicate 2: 1.35e6

CG42720 (retired record) [DRSC29811]
- firefly reporter light, replicate 1: 3.87e5
- firefly reporter light, replicate 2: 3.36e5
- Renilla control light, replicate 1: 1.54e6
- Renilla control light, replicate 2: 1.54e6
